Laboratory results taken from US6579967B1 (The Salk Institute for Biological Studies, priority 1999, dated 2003).

Assay: Boc solid-phase peptide synthesis; chloromethylated resin
Details: whole synthesis, capillary zone electrophoresis

Substance: (cyclo)H-Cys-Phe-Tyr-D-Agl(Me,2Np)-Lys-Thr-Phe-Cys-OH
- final purity (method not given): greater than 95% pure
